# Values from PubChem BioAssay AID1259254 (NCATS, 2017)
# Screen: 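Finding genes that stop cells copying their DNA twice in one cycle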 (primary screen)
# System: human HCT116 colorectal cancer cells
# Reagent: single siRNA against human genes
# Time to read-out: 3 days
# Measurement: 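Nuclei stained with Hoechst and imaged; cell-cycle phase assigned by DNA content; G2 share scaled per plate, non-targeting siRNA 0%, GMNN siRNA 100%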
# Scale: G2 robust z-score: higher = more G2 cells, more excess DNA replication
# Hit rule: 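An siRNA counts as active if its G2 robust z-score lies at least 5 MADs above the screen median; here such calls match roughly 38% of GMNN control or more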
# The whole screen tested about 59,000 reagents; below is an unselected part. About 1,550 of all reagents (2.6%) were called active. 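G2 share is only a proxy for re-replication; each gene was hit by three separate siRNAs, and active genes were retested.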 Reagents against one gene are numbered here. Not all columns of the deposit are shown. Not given: the amount of reagent.
gene knocked down,reagent no.,G2 robust z-score,activity call
TIA1,1,1.52,inactive
TIA1,2,-0.564,inactive
TIA1,3,1.99,inactive
TPRG1L,1,1.32,inactive
TPRG1L,2,-0.362,inactive
TPRG1L,3,-0.634,inactive
PCDH17,1,-0.475,inactive
PCDH17,2,0.648,inactive
PCDH17,3,0.0152,inactive
CHTF8,1,-1.19,inactive
CHTF8,2,0.901,inactive
CHTF8,3,-0.462,inactive
MYRF,1,-1.01,inactive
MYRF,2,-0.396,inactive
MYRF,3,0.532,inactive
NSMCE2,1,0.401,inactive
NSMCE2,2,-1.01,inactive
NSMCE2,3,-0.389,inactive
DCAF1,1,0.807,inactive
DCAF1,2,0.855,inactive
DCAF1,3,1.16,inactive
SPTAN1,1,-0.767,inactive
SPTAN1,2,0.953,inactive
SPTAN1,3,2.19,inactive
NR4A1,1,0.846,inactive
NR4A1,2,0.251,inactive
NR4A1,3,-0.873,inactive
SDR16C6P,1,-0.613,inactive
SDR16C6P,2,1.71,inactive
SDR16C6P,3,-0.754,inactive
